Test [1] concerns the target p53 (wild-type) (human (endogenous in LNCaP)) (UniProt P04637). In words: co-IP; endogenous proteins in LNCaP cell lysate (20 mM Tris pH 8.0, 150 mM NaCl, 5 mM MgCl2, 0.5% NP40), 2 mg precleared lysate with 6 ug antibody overnight at 4 C, protein G Dynabeads or agarose, western blot; in some panels cells treated 16 hr with R1881 or vehicle, or transfected with WDR77 or control siRNA 72 hr before. For orientation: In western blotting, separated proteins are transferred to a membrane and probed.

Amino acid sequences for entries named in this document (tags omitted).
UniProt P40763: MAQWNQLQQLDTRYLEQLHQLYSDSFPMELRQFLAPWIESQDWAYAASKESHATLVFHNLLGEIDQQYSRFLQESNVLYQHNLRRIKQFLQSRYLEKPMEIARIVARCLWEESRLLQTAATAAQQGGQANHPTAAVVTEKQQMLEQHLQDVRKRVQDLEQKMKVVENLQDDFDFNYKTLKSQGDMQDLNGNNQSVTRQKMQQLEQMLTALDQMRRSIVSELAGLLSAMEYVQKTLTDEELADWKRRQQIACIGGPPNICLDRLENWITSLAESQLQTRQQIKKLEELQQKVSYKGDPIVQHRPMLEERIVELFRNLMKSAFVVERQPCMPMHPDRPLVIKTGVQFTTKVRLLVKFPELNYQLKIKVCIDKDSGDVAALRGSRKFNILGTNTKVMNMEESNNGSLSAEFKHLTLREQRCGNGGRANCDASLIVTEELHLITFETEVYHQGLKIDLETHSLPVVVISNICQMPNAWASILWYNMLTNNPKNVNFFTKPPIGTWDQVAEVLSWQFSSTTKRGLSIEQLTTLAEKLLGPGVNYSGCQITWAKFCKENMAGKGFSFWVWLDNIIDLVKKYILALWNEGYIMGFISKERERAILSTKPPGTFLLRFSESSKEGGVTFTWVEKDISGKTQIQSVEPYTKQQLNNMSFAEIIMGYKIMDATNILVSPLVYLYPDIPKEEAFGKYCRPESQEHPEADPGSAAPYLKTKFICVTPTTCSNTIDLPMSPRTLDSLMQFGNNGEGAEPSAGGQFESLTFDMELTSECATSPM

Test [2] has as its target STAT3 (human (endogenous in LNCaP)) (UniProt P40763). The description is as above.

Results are given in words; binding and its absence hold for the method and conditions named. In cells and extracts the contact can be indirect. Some results given as binding are weak or reduced against the parent protein; the word gives no strength.

B1: PGAM5 short isoform (protein, UniProt Q96HS1-2 1-255)
chain: MAFRQALQLAACGLAGGSAAVLFSAVAVGKPRAGGDAEPRPAEPPAWAGGARPGPGVWDPNWDRREPLSLINVRKRNVESGEEELASKLDHYKAKATRHIFLIRHSQYHVDGSLEKDRTLTPLGREQAELTGLRLASLGLKFNKIVHSSMTRAIETTDIISRHLPGVCKVSTDLLREGAPIEPDPPVSHWKPEAVQYYEDGARIEAAFRNYIHRADARQEEDSYEIFICHANVIRYIVCSIPPLLSAGDFVLLGS
As to B1, the binding result in test [1] is reported as “binds”.

B2: IRF1 (protein, UniProt P10914 1-325)
chain: MPITRMRMRPWLEMQINSNQIPGLIWINKEEMIFQIPWKHAAKHGWDINKDACLFRSWAIHTGRYKAGEKEPDPKTWKANFRCAMNSLPDIEEVKDQSRNKGSSAVRVYRMLPPLTKNQRKERKSKSSRDAKSKAKRKSCGDSSPDTFSDGLSSSTLPDDHSSYTVPGYMQDLEVEQALTPALSPCAVSSTLPDWHIPVEVVPDSTSDLYNFQVSPMPSTSEATTDEDEEGKLPEDIMKLLEQSEWQPTNVDGKGYLLNEPGVQPTSVYGDFSCKEEPEIDSPGGDIGLSLQRVFTDLKNMDATWLDSLLTPVRLPSIQAIPCAP
B2: the binding entry in test [2] is “binds”.

The record behind these values is paper PMC5608510.
